No constants are given. Whether binding was seen depends on the method and setting.

This experiment concerns the target CD19 CAR on transduced PBMCs. As to the kind of experiment: immunohistochemistry on FFPE cell pellets.

B1: KIP-8 antibody (mAb clone 39; Clone 39-4) (antibody, V domains shown)
VH: QEQLVESGGGLVQPEGSLTLTCTASGFDLGNNWIHWVRHAPGKGLEWIACVSGSSGNIYYATWAKGRFTMSKASSTTVTLRMTSLTAADTATYFCARGWNLWGPGTLVTVSS
VL: AQVLTQTPASVSAAVGGTVTINCQASQSVYSSNLLTWYQKKPGQPPKLLIYEASKLPSGIPSRFSGSGSGTQFTLTISDVQCADAATYYCLGIYDCVLADCQAFGGGTEVVVKG
notes: Rabbit monoclonal antibody; also called clone 39 (KIP-8); Clone 39-4 vh1
With B1, the binding entry is “no binding”.

The values are drawn from patent publication US20200308281A1 (KITE PHARMA, published 2020).
